US20240360185A1, “AV3 MUTANT INSECTICIDAL POLYPEPTIDES AND METHODS FOR PRODUCING AND USING SAME” (Vestaron Corporation, priority 2018, published 2024)
Some results were stated once for a whole list of compounds, not compound by compound.

Columns and labels:
[1] = system: houseflies (Musca domestica); test: housefly injection assay; assay type: in vivo
Protocol: An exemplary housefly injection bioassay is as follows: conditioned media is serially diluted to generate full dose-response curves from the housefly injection bioassay. Before injection, adult houseflies (Musca domestica) are immobilized with CO2, and 12-18 mg houseflies are selected for injection. A microapplicator, loaded with a 1 cc syringe and 30-gauge needle, is used to inject 0.5 μL per fly, doses of serially diluted conditioned media samples into houseflies through the body wall of the dorsal thorax. The injected houseflies are placed into closed containers with moist filter paper and breathing holes on the lids, and they are examined by knock-down ratio or by mortality scoring at 24 hours post-injection. Normalized yields are calculated. Peptide yield means the peptide concentration in the conditioned media in units of mg/L. However, peptide yields are not always sufficient to accurately compare the strain production rate. […] The cell density is represented by the light absorbance at 600 nm with a unit of “A” (Absorbance unit).
A Housefly injection assay was performed to compare the activity of Av3b with GenScript Synthetic Av3b. FIG. 33. Adult houseflies were immobilized in CO2 for 10 minutes and then transferred to a CO2 pan to keep them immobilized. Flies with weight between 12-20 mg were picked for injection. The synthetic peptides were diluted in water to proper doses for injection. 0.5 μL peptide solution was injected into housefly at the dorsal thorax using a hand-microapplicator with 1 cc all-glass syringe with 30 gouge straight needle. The injected flies were then transferred to a 2 oz transparent portion container with a wet #4 filter paper. Fly score was accessed at 2 hour, 3 hour, 4 hour and 24 hour post-injection. […] Core-5 and Core-4 synthetic polypeptides were also evaluated in the housefly injection assay. FIG. 34. […] FIG. 36.

Aedes aegypti = test: adult mosquito topical bioassay; assay type: in vivo; settings: adult mosquitoes
Protocol: Native Av3, R1K mutant Av3 (Av3a) and R1K+AC-Val double mutant Av3 (Av3a-C1, or Av3b) were evaluated in the adult mosquito topical bioassay. The adult mosquitoes were ordered from Benzon Research. The adult mosquitoes were immobilized using CO2 gas and transferred onto a CO2 pad with CO2 flowing to keep them immobilized during topical applications. A hand microapplicator equipped with 1 cc glass syringe with a 30 gouge straight needle was used for the application of droplet. 0.25 μl droplet of toxin solution per mosquito was pushed out from the needle and gently applied to the ventral side of the mosquito abdomen. The treated mosquitoes were put into a 2.5 oz. clear cup with moisture filter paper and lid with breathing holes. Score the treated mosquitoes for paralysis or death within 24 hours post-application. […] FIG. 13.

| Sequence | knock-down activities (or paralysis activities) first observed post-injection [1] [h] | knock-down first observed post-topical application (Aedes aegypti) [h] | potency reduced compared to yeast-expressed Av3b [1] | activity relative to synthetic Av3b (more active) [1] |
| --- | --- | --- | --- | --- |
| RSCCPCYWGGCPWGQNCYPEGCSGPK (C-terminal amino acid deletion relative to SEQ ID NO: 1) [Av3-C1] | ≤ 1 |  |  |  |
| GSRSCCPCYWGGCPWGQNCYPEGCSGPKV (Av3’peptide sequence ("Peak 2")) [Av3+2] | ≤ 1 | ≤ 1 |  |  |
| RSCCPCYWGGCPWGQNCYPEGCSGPKV [Av3, reference compound] | ≤ 1 | ≤ 1 |  |  |
| KSCCPCYWGGCPWGQNCYPEGCSGPK [Synthetic Av3b] |  |  | 2-3 time |  |
| KSCCPCYWGGCPWGQNCYPEGCSGPK [Av3b] |  |  |  | 2-3 times |
| GSRSCCPCYWGGCPWGQNCYPEGCSGPK (Av3’peptide with C-terminal valine cleaved ("Peak 1")) [Av3+2−C1] | ≤ 1 | ≤ 1 |  |  |
